# From the supplement of paper PMC8728848
# The list shows a part of the results.
# B1: NK11 (Sus scrofa) (peptide)
# chain: KISKRILTGKK
# Assays:
# Experiment in all cases: glycan array binding signal (z-score within array); higher = stronger binding
# Details in all cases: glycan notation: IUPAC condensed, linker removed
# Man(a1-6)Man = molecular target: Man(a1-6)Man
# Summary of the method: (§1)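 From the Consortium for Functional Glycomics database, 3228 arrays were curated, keeping only those whose protein sequence was available. Binding is given as a within-array Z-score averaged across arrays sharing a protein sequence and across linkers. Negative Z-scores can be read as non-binding.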
# Man(b1-4)GlcNAc = molecular target: Man(b1-4)GlcNAc
# Summary of the method: as §1
# MurNAc(b1-4)GlcNAc = molecular target: MurNAc(b1-4)GlcNAc
# Summary of the method: as §1
# Neu5Ac(a2-3)Gal = molecular target: Neu5Ac(a2-3)Gal
# Summary of the method: as §1
# [1] = molecular target: Neu5Ac(a2-3)Gal(b1-3)GalNAc
# Summary of the method: as §1
# [2] = molecular target: Neu5Ac(a2-3)Gal(b1-3)GalNAc(b1-3)Gal(a1-4)Gal(b1-4)Glc
# Summary of the method: as §1
# [3] = molecular target: Neu5Ac(a2-3)Gal(b1-3)GalNAc(b1-4)Gal(b1-4)Glc
# Summary of the method: as §1
# [4] = molecular target: Neu5Ac(a2-3)Gal(b1-3)GalNAc(b1-4)[Neu5Ac(a2-3)]Gal(b1-4)Glc
# Summary of the method: as §1
# [5] = molecular target: Neu5Ac(a2-3)Gal(b1-3)GalNAc(b1-4)[Neu5Ac(a2-8)Neu5Ac(a2-3)]Gal(b1-4)Glc
# Summary of the method: as §1
# [6] = molecular target: Neu5Ac(a2-3)Gal(b1-3)GalNAc6S
# Summary of the method: as §1
# [7] = molecular target: Neu5Ac(a2-3)Gal(b1-3)GlcNAc
# Summary of the method: as §1
# [8] = molecular target: Neu5Ac(a2-3)Gal(b1-3)GlcNAc(b1-2)Man
# Summary of the method: as §1
# [9] = molecular target: Neu5Ac(a2-3)Gal(b1-3)GlcNAc(b1-2)Man(a1-3)[GlcNAc(b1-4)][Neu5Ac(a2-3)Gal(b1-3)GlcNAc(b1-2)Man(a1-6)]Man(b1-4)GlcNAc(b1-4)GlcNAc
# Summary of the method: as §1
# [10] = molecular target: Neu5Ac(a2-3)Gal(b1-3)GlcNAc(b1-2)Man(a1-3)[Neu5Ac(a2-3)Gal(b1-3)GlcNAc(b1-2)Man(a1-6)]Man(b1-4)GlcNAc(b1-4)GlcNAc
# Summary of the method: as §1
# [11] = molecular target: Neu5Ac(a2-3)Gal(b1-3)GlcNAc(b1-2)[Neu5Ac(a2-3)Gal(b1-3)GlcNAc(b1-4)]Man(a1-6)[Neu5Ac(a2-3)Gal(b1-3)GlcNAc(b1-2)Man(a1-3)]Man(b1-4)GlcNAc(b1-4)GlcNAc
# Summary of the method: as §1
# [12] = molecular target: Neu5Ac(a2-3)Gal(b1-3)GlcNAc(b1-3)Gal(b1-3)GlcNAc
# Summary of the method: as §1
# [13] = molecular target: Neu5Ac(a2-3)Gal(b1-3)GlcNAc(b1-3)Gal(b1-4)GlcNAc
# Summary of the method: as §1
# [14] = molecular target: Neu5Ac(a2-3)Gal(b1-3)GlcNAc(b1-3)GalNAc
# Summary of the method: as §1
# [15] = molecular target: Neu5Ac(a2-3)Gal(b1-3)GlcNAc(b1-6)GalNAc
# Summary of the method: as §1
# [16] = molecular target: Neu5Ac(a2-3)Gal(b1-3)GlcNAc6S
# Summary of the method: as §1
# [17] = molecular target: Neu5Ac(a2-3)Gal(b1-3)[Fuc(a1-4)]GlcNAc
# Summary of the method: as §1
# [18] = molecular target: Neu5Ac(a2-3)Gal(b1-3)[Fuc(a1-4)]GlcNAc(b1-3)Gal(b1-3)[Fuc(a1-4)]GlcNAc
# Summary of the method: as §1
# [19] = molecular target: Neu5Ac(a2-3)Gal(b1-3)[Fuc(a1-4)]GlcNAc(b1-3)Gal(b1-4)[Fuc(a1-3)]GlcNAc
# Summary of the method: as §1
# [20] = molecular target: Neu5Ac(a2-3)Gal(b1-3)[GlcNAc(b1-6)]GalNAc
# Summary of the method: as §1
# [21] = molecular target: Neu5Ac(a2-3)Gal(b1-3)[Neu5Ac(a2-3)Gal(b1-4)]GlcNAc
# Summary of the method: as §1
# [22] = molecular target: Neu5Ac(a2-3)Gal(b1-3)[Neu5Ac(a2-6)]GalNAc
# Summary of the method: as §1
# [23] = molecular target: Neu5Ac(a2-3)Gal(b1-3)[Neu5Ac(a2-6)]GlcNAc(b1-3)[Fuc(a1-3)[Gal(b1-4)]GlcNAc(b1-6)]Gal(b1-4)Glc
# Summary of the method: as §1
# [24] = molecular target: Neu5Ac(a2-3)Gal(b1-3)]Neu5Ac(a2-3)Gal(b1-4)]GlcNAc
# Summary of the method: as §1
# Neu5Ac(a2-3)Gal(b1-4)Glc = molecular target: Neu5Ac(a2-3)Gal(b1-4)Glc
# Summary of the method: as §1
# [25] = molecular target: Neu5Ac(a2-3)Gal(b1-4)GlcNAc
# Summary of the method: as §1
# [26] = molecular target: Neu5Ac(a2-3)Gal(b1-4)GlcNAc(b1-2)Man
# Summary of the method: as §1
# [27] = molecular target: Neu5Ac(a2-3)Gal(b1-4)GlcNAc(b1-2)Man(a1-3)[GlcNAc(b1-2)Man(b1-4)GlcNAc(b1-2)Man(a1-6)]Man(b1-4)GlcNAc(b1-4)GlcNAc
# Summary of the method: as §1
# [28] = molecular target: Neu5Ac(a2-3)Gal(b1-4)GlcNAc(b1-2)Man(a1-3)[GlcNAc(b1-4)][Neu5Ac(a2-3)Gal(b1-4)GlcNAc(b1-2)Man(a1-6)]Man(b1-4)GlcNAc(b1-4)GlcNAc
# Summary of the method: as §1
# [29] = molecular target: Neu5Ac(a2-3)Gal(b1-4)GlcNAc(b1-2)Man(a1-3)[Neu5Ac(a2-3)Gal(b1-4)GlcNAc(b1-2)Man(a1-6)]Man(b1-4)GlcNAc(b1-4)GlcNAc
# Summary of the method: as §1
# [30] = molecular target: Neu5Ac(a2-3)Gal(b1-4)GlcNAc(b1-2)Man(a1-3)[Neu5Ac(a2-3)Gal(b1-4)GlcNAc(b1-2)Man(a1-6)]Man(b1-4)GlcNAc(b1-4)[Fuc(a1-6)]GlcNAc
# Summary of the method: as §1
# [31] = molecular target: Neu5Ac(a2-3)Gal(b1-4)GlcNAc(b1-2)Man(a1-3)[Neu5Ac(a2-6)Gal(b1-4)GlcNAc(b1-2)Man(a1-6)]Man(b1-4)GlcNAc(b1-4)GlcNAc
# Summary of the method: as §1
binder,measurement,setting,value
B1,glycan array binding signal (z-score),Man(a1-6)Man,-0.205
same,glycan array binding signal (z-score),Man(b1-4)GlcNAc,-0.365
same,glycan array binding signal (z-score),MurNAc(b1-4)GlcNAc,-0.745
same,glycan array binding signal (z-score),Neu5Ac(a2-3)Gal,-0.568
same,glycan array binding signal (z-score),[1],0.104
same,glycan array binding signal (z-score),[2],-0.397
same,glycan array binding signal (z-score),[3],-1.55
same,glycan array binding signal (z-score),[4],0.981
same,glycan array binding signal (z-score),[5],-0.297
same,glycan array binding signal (z-score),[6],1.06
same,glycan array binding signal (z-score),[7],0.637
same,glycan array binding signal (z-score),[8],-1.85
same,glycan array binding signal (z-score),[9],0.854
same,glycan array binding signal (z-score),[10],-0.579
same,glycan array binding signal (z-score),[11],0.219
same,glycan array binding signal (z-score),[12],-0.342
same,glycan array binding signal (z-score),[13],-0.059
same,glycan array binding signal (z-score),[14],0.329
same,glycan array binding signal (z-score),[15],2.33
same,glycan array binding signal (z-score),[16],1.21
same,glycan array binding signal (z-score),[17],-0.073
same,glycan array binding signal (z-score),[18],0.113
same,glycan array binding signal (z-score),[19],0.541
same,glycan array binding signal (z-score),[20],0.233
same,glycan array binding signal (z-score),[21],0.152
same,glycan array binding signal (z-score),[22],-0.164
same,glycan array binding signal (z-score),[23],1.41
same,glycan array binding signal (z-score),[24],1.82
same,glycan array binding signal (z-score),Neu5Ac(a2-3)Gal(b1-4)Glc,0.15
same,glycan array binding signal (z-score),[25],0.156
same,glycan array binding signal (z-score),[26],1.03
same,glycan array binding signal (z-score),[27],-0.419
same,glycan array binding signal (z-score),[28],0.628
same,glycan array binding signal (z-score),[29],-0.485
same,glycan array binding signal (z-score),[30],2.3
same,glycan array binding signal (z-score),[31],0.387

# Retrieved one by one from the list above (2):
binder,measurement,setting,value
B1,glycan array binding signal (z-score),[21],0.152
same,glycan array binding signal (z-score),Man(a1-6)Man,-0.205
